Tested on: CT-DNA
Assay: UV–vis absorption spectral titration with CT-DNA
Format: binding
Details: for Δλ (bathochromic shift): band 272–285 nm, Tris-HCl buffer; for ΔG: van't Hoff equation from Kb, CT-DNA binding
[1] = compound 50 μM, CT-DNA 0–100 μM

With `O=Cc1ccc(OCc2cn(-c3ccc(Cl)c(Cl)c3)nn2)cc1O` [Compound 3, 4-((1-(3,4-Dichlorophenyl)-1H-1,2,3-triazol-4-yl)methoxy)-2-hydroxybenzaldehyde] the “Δλ (bathochromic shift)” value [1] was 13.00 nm, the “Δλ (bathochromic shift)” value (compound 50 μM, CT-DNA 0–100 μM, listed as compound 3) was 13 nm and the “% H (hypochromism)” value (band at 272 nm, compound 50 μM, CT-DNA 0–100 μM) was “–86.18%”. For the same compound, the isosbestic point [1] was 370–390 nm, the ΔG was “–31.25 kJ·mol^–1” and the ΔG (listed as compound 3) was −31.25 kJ·mol^–1.
